In patent publication US20060009506A1, “Drugs for the treatment of neoplastic disorders” (Odyssey Thera, Inc., priority 2004, published 2006) one finds IC50 data, which are given here for one compound.

For orientation: IC50 means the midpoint of a concentration-inhibition curve.

What all share (assay type): cell-based
One experiment deals with MIA PaCa-2 cells. In words: MTT proliferation assay, pancreatic carcinoma MIA PaCa-2. As to conditions: Homo sapiens, MIA PaCa-2, 120 h, Tumor Cell: Pancreatic (MIA PaCa-2), concentrations tested in microM. An excerpt: (§1) We first screened compounds derived from the known pharmacopeia and from a selected natural product collection using two types of assays: (a) measurements of post-translational modifications of proteins; (b) measurements of protein-protein interactions. For the purpose of measuring post-translational modifications of proteins, we used immunofluorescence methods combined with phospho-specific antibodies. For the purpose of quantifying and localizing protein complexes we used fluorescence methods based on protein-fragment complementation assays (PCA). ‘Hits’ from the initial screens were then tested for antiproliferative activity in up to 5 different human tumor cell lines. […] For drugs with antiproliferative activity in PC-3 cells, dose-response curves were generated to determine the EC50 for antiproliferative activity and additional tumor cell lines were tested to determine the breadth of activity. Methods for assay development, validation, screening, and testing of antiproliferative activity are described below.
(§2) Cells were maintained in various media as follows: A549, LoVo and PC-3 (Ham's F12K medium with 2 mM L-glutamine and 1.5 g/L sodium bicarbonate), MIA PaCa-2 (Dulbecco's modified Eagle's medium with 4 mM L-glutamine and 4.5 g/L glucose), U87-MG (MEM+Earle's BSS). […] Background absorbance was established by wells containing medium but no cells. […]
A general note: Formazan colour is commonly taken as a measure of viable cells.

A further experiment concerns PC-3 cells. In words: MTT proliferation assay, prostate adenocarcinoma PC-3. As to conditions: Homo sapiens, Tumor Cell: Prostate (PC-3), 120 hours, concentrations tested in microM.
Source text: as §1, §2

A further experiment has as its system LoVo cells. In words: MTT proliferation assay, colon adenocarcinoma LoVo. As to conditions: Homo sapiens, Tumor Cell: Colon (LoVo), 120 hours, concentrations tested in microM.
Source text: as §1, §2

Take `CC(C)c1c(C(=O)Nc2ccccc2)c(-c2ccccc2)c(-c2ccc(F)cc2)n1CC[C@@H](O)C[C@@H](O)CC(=O)O` [Atorvastatin]: the IC50 in the experiment with MIA PaCa-2 cells turned out to be 6.09 µM; in the experiment on PC-3 cells, 10.6 µM; with LoVo cells it was 16.9 µM.
